The target in the test is RIT1 (HA tag) (UniProt Q92963). Kind of test: co-IP; U-CH1 cells, 36 h after plasmid transfection, RIPA lysis buffer at 4 °C; specific agarose beads, 4 °C for 4 h, washed three times, Western blot; which protein was precipitated is not told. In general terms: Immunoblotting shows a protein as a band on a membrane.

Protein sequences, listed by entry. Tags and fused reporters are not part of them.
UniProt Q92963: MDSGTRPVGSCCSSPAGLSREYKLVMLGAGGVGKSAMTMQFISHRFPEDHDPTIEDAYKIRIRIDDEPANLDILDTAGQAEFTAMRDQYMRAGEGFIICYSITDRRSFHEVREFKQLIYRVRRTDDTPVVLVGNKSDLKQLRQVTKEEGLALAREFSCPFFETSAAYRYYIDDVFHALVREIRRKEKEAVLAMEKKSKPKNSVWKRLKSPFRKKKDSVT
UniProt P61289: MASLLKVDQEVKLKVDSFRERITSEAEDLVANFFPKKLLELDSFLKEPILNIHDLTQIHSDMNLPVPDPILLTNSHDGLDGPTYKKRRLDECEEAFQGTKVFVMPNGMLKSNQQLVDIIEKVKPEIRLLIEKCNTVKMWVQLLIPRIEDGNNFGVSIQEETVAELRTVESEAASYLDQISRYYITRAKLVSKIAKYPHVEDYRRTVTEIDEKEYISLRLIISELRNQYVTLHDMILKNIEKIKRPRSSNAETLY

Results are given in words; binding and its absence hold for the method and conditions named. In cells and extracts the contact can be indirect. Some entries that bind do so weakly or less than the wild type.

As to “REGγ (Flag tag) (from UniProt P61289 1-254)”, the binding result is given as “binds”.

The values above are taken from paper PMC12552625.
